# Primary screen of a compound library

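Whole-cell assay for inhibitors of Mycobacterium tuberculosis growth, labelled Cornell in the record; the read-out is not stated. The concentration is filed as 10 mM, unlikely as a test dose, so the dose is not known. Higher means stronger inhibition (inferred from two other growth screens of the library). Of about 53,000 compounds tested this way, about 900 (1.7%) reached 50% or more in at least one test.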

Each number is a percent effect as filed.
The record does not define 0% and 100%; most values in the screen are far below 50% and negative numbers occur (in some assays of this library far below -100).
The compounds are a random part of those screened.

Cc1cncc(C(=O)N(c2ccc(F)cn2)C2CCOCC2)c1 read -12.37%. Result for CC(NCc1cc(F)ccc1F)c1ccc(OCC(=O)NC2CC2)cc1 (stereo not drawn) was -52.24%. Cn1cc(-c2nc(CN3CCn4c(nnc4C4CC4)C3)cs2)cn1 read 0.07985%. Result for Cc1noc(C(C)N(C)Cc2ccco2)n1 (stereo not drawn) was -48.85%. Result for COc1cc(OC)cc(N2CCC(NCc3ccsc3)C2=O)c1 (stereo not drawn) was 14.8%. With COc1c(C2CCCN2C(=O)c2cscn2)c(C)nn1C (stereo not drawn) the screen gave -30.8%. CCN(CC)C(=O)c1cc(-c2cccc(Cl)c2)no1 gave 23.73%.

CN(CCCN1CCCC1)[C@@H]1c2ccccc2C2(CCNCC2)[C@H]1O read -28.9%. O=C(CN1CCC(C(=O)c2cc(F)ccc2F)CC1)NC1CCCC1 read 2.334%. For O=C1CN(CC2CC2)Cc2nc(NCc3ccccc3)sc21 the result was -35.76%. CCN1CCC(CC(=O)NCc2cc(C)nn2C)CC1 read 14.14%. Result for CCOc1nnc(CN2CCCC(c3nc4ccccc4[nH]3)C2)s1 (stereo not drawn) was 14.42%. CCOc1ccccc1CCNC(=O)NCC(O)c1cccs1 (stereo not drawn) read 4.751%. With O=C(Nc1cc(CSCCO)ccn1)c1ccc(Cl)o1 the screen gave 22.48%.

[H][C@@]12CCN(Cc3nc(C)cs3)C[C@@]1([H])O[C@@H](C)C2 gave 5.834%. For Cn1nccc1CN1CCOC(c2cccc(Nc3ccccn3)n2)C1 (stereo not drawn) the result was 10.03%. O=C(c1ccco1)N1CCc2c(nc(-c3ccncc3)[nH]c2=O)C1 read -64.42%. For CC(NC1(CNS(=O)(=O)N(C)C)CCCC1)c1ccccc1 (stereo not drawn) the result was -8.277%. With CC(=O)N[C@@H]1CN(C(=O)c2cc(C)oc2C)C[C@H]1c1ccc(C)o1 the screen gave 8.433%. O=C(c1ccc2[nH]ccc2c1)N1CCCCC1c1nc[nH]n1 (stereo not drawn) gave 14.55%. With CC(NC1CCSCC1)c1ccccc1-n1cccn1 (stereo not drawn) the screen gave 12.59%.

COc1ccc(N2Cc3nc(N4CCCC4)ncc3C2=O)cc1Cl gave -3.282%. Result for O=C(CSc1nnc[nH]1)NCc1cccs1 was -27.99%. COCCN1CCN(Cc2c(C)noc2C)Cc2cccnc21.O=C(O)C(F)(F)F.O=C(O)C(F)(F)F read 34.11%. Cc1ncccc1C(=O)Nc1cccc(Cn2ccccc2=O)c1 read 7.778%. CCCc1ncc(C(=O)N2CCOc3ncccc32)s1 read -25.49%. CCCC1CN(CC(C)C)C(=O)c2cccnc2O1 (stereo not drawn) gave -30.5%. c1ccc(SCCN2CCN(CCn3cncn3)CC2)cc1 read 1.695%.

CC(C)CN1CCCn2nc(CNC(=O)NC(C)(C)C)cc2C1 read -13.8%. With COCCc1nc(CN2CC(C)(c3ccccc3)CCC2=O)no1 (stereo not drawn) the screen gave -19.18%. Result for CC(C)C(O)C1CCN(c2ccnc(C(=O)NCc3ccco3)c2)CC1 (stereo not drawn) was 29.2%. CCc1cnc2c(c1Nc1ccncc1)c(=O)n(C)c(=O)n2C gave -17.31%. Fc1ccccc1NCc1nc2n(n1)CCCCC2 read 6.356%. Cn1ccc(NC(=O)CN2CCC(Oc3cnccn3)CC2)n1 read -4.083%. CC(C)(C)c1noc(OCC(=O)NC2CCCC2)n1 gave 1.586%.

Cc1cnc(N2CCC3(C2)CN(S(=O)(=O)C2CC2)C3)nc1 gave 0.2736%. With CCCC(=O)Nc1cc(C(=O)NC(C)Cc2ccncc2)ccc1C (stereo not drawn) the screen gave -6.583%. For Cc1cncc(C2CCCN2CC(N)=O)n1 (stereo not drawn) the result was -30.47%.

Once more, the final 4:

With CC(C)(C)c1noc(OCC(=O)NC2CCCC2)n1 the screen gave 1.586%.
With Cc1cnc(N2CCC3(C2)CN(S(=O)(=O)C2CC2)C3)nc1 the screen gave 0.2736%.
With CCCC(=O)Nc1cc(C(=O)NC(C)Cc2ccncc2)ccc1C (stereo not drawn) the screen gave -6.583%.
With Cc1cncc(C2CCCN2CC(N)=O)n1 (stereo not drawn) the screen gave -30.47%.

Source: ChEMBL document CHEMBL3988442, “University of Dundee, Small-Polar-MMV Screening Library” (2021).